Laboratory results: PubChem BioAssay AID652272 (Drosophila RNAi Screening Center, 2013)
Test: 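Genes whose knock-down decreases or increases Hedgehog reporter output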 (primary screen). Cell system: Drosophila clone 8 (Cl8) cells. Reagents: long dsRNA against Drosophila genes. Read-out: 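Firefly light from a Hedgehog-responsive ptc promoter reporter and Renilla reference light, both read on a plate reader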. Reading the numbers: firefly Hh reporter signal: higher = more ptc reporter light; Renilla reference signal: higher = more Renilla control light. Hit rule: 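Called a hit if the two-replicate mean z-score lies below -2 or above +3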. Calls: active = hit: reporter lowered or raised; inactive = not a hit.
The screen tested about 21,000 reagents; shown is a random part of those that have a named target and a result. In the full data, 503 (2.4%) were called active. 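Raw plate light values, not normalised; calls rest on replicate z-scores that were not deposited; hits include reporter decreases as well as increases.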 No sequences are given here. The record does not give: the amount of reagent, the time to read-out.

The opening 2 records, to show the layout:
CG43366 [DRSC04857] — firefly Hh reporter signal, replicate 1 = 1.01e5; firefly Hh reporter signal, replicate 2 = 74416; Renilla reference signal, replicate 1 = 2358; Renilla reference signal, replicate 2 = 7922; Call = inactive
CG43366 [DRSC04864] — firefly Hh reporter signal, replicate 1 = 78853; firefly Hh reporter signal, replicate 2 = 65398; Renilla reference signal, replicate 1 = 2083; Renilla reference signal, replicate 2 = 6064; Call = inactive

Main list, from the start:
CG43366 [DRSC04857] — firefly Hh reporter signal, replicate 1 = 1.01e5; firefly Hh reporter signal, replicate 2 = 74416; Renilla reference signal, replicate 1 = 2358; Renilla reference signal, replicate 2 = 7922; Call = inactive
CG43366 [DRSC04864] — firefly Hh reporter signal, replicate 1 = 78853; firefly Hh reporter signal, replicate 2 = 65398; Renilla reference signal, replicate 1 = 2083; Renilla reference signal, replicate 2 = 6064; Call = inactive
CG3552 [DRSC10370] — firefly Hh reporter signal, replicate 1 = 56195; firefly Hh reporter signal, replicate 2 = 64487; firefly Hh reporter signal, replicate 3 = 50369; Renilla reference signal, replicate 1 = 5737; Renilla reference signal, replicate 2 = 3644; Call = inactive
cutlet [DRSC00284] — firefly Hh reporter signal, replicate 1 = 2.19e5; firefly Hh reporter signal, replicate 2 = 86075; Renilla reference signal, replicate 1 = 5541; Renilla reference signal, replicate 2 = 8344; Call = inactive
eIF2Bdelta (eukaryotic translation initiation factor 2B subunit delta) [DRSC04058] — firefly Hh reporter signal, replicate 1 = 92549; firefly Hh reporter signal, replicate 2 = 78579; Renilla reference signal, replicate 1 = 3866; Renilla reference signal, replicate 2 = 3142; Call = inactive
sti (sticky) [DRSC09739] — firefly Hh reporter signal, replicate 1 = 25483; firefly Hh reporter signal, replicate 2 = 45138; firefly Hh reporter signal, replicate 3 = 70874; Renilla reference signal, replicate 1 = 4665; Renilla reference signal, replicate 2 = 4674; Call = inactive
sti (sticky) [DRSC09740] — firefly Hh reporter signal, replicate 1 = 29433; firefly Hh reporter signal, replicate 2 = 33047; firefly Hh reporter signal, replicate 3 = 59985; Renilla reference signal, replicate 1 = 3937; Renilla reference signal, replicate 2 = 4246; Call = inactive
CG1965 [DRSC12577] — firefly Hh reporter signal, replicate 1 = 2.05e5; firefly Hh reporter signal, replicate 2 = 8.43e5; firefly Hh reporter signal, replicate 3 = 1.48e5; Renilla reference signal, replicate 1 = 7800; Renilla reference signal, replicate 2 = 49524; Call = inactive
elgi (early girl) [DRSC10242] — firefly Hh reporter signal, replicate 1 = 1.00e5; firefly Hh reporter signal, replicate 2 = 50032; Renilla reference signal, replicate 1 = 3971; Renilla reference signal, replicate 2 = 1884; Call = inactive
CG4045 [DRSC18518] — firefly Hh reporter signal, replicate 1 = 1.47e5; firefly Hh reporter signal, replicate 2 = 1.08e5; Renilla reference signal, replicate 1 = 3395; Renilla reference signal, replicate 2 = 3674; Call = inactive
CG14340 [DRSC00370] — firefly Hh reporter signal, replicate 1 = 1.06e5; firefly Hh reporter signal, replicate 2 = 92668; Renilla reference signal, replicate 1 = 2620; Renilla reference signal, replicate 2 = 2313; Call = inactive
Sps2 (Selenophosphate synthetase 2) [DRSC03441] — firefly Hh reporter signal, replicate 1 = 96320; firefly Hh reporter signal, replicate 2 = 50054; Renilla reference signal, replicate 1 = 2714; Renilla reference signal, replicate 2 = 4800; Call = inactive
Alg10 (ALG10 alpha-1,2-glucosyltransferase) [DRSC10892] — firefly Hh reporter signal, replicate 1 = 41274; firefly Hh reporter signal, replicate 2 = 40072; firefly Hh reporter signal, replicate 3 = 53605; Renilla reference signal, replicate 1 = 4604; Renilla reference signal, replicate 2 = 3981; Call = inactive
Drice (Death related ICE-like caspase) [DRSC16715] — firefly Hh reporter signal, replicate 1 = 1.16e5; firefly Hh reporter signal, replicate 2 = 77748; Renilla reference signal, replicate 1 = 2896; Renilla reference signal, replicate 2 = 2434; Call = inactive
Ptp4E (Protein tyrosine phosphatase 4E) [DRSC18701] — firefly Hh reporter signal, replicate 1 = 1.05e5; firefly Hh reporter signal, replicate 2 = 70966; Renilla reference signal, replicate 1 = 2274; Renilla reference signal, replicate 2 = 1920; Call = inactive
Sec6 (Secretory 6) [DRSC06932] — firefly Hh reporter signal, replicate 1 = 95995; firefly Hh reporter signal, replicate 2 = 82548; Renilla reference signal, replicate 1 = 3590; Renilla reference signal, replicate 2 = 3025; Call = inactive
Polr2B (RNA polymerase II subunit B) [DRSC16831] — firefly Hh reporter signal, replicate 1 = 1.12e5; firefly Hh reporter signal, replicate 2 = 99248; Renilla reference signal, replicate 1 = 3482; Renilla reference signal, replicate 2 = 2829; Call = inactive
Arp53D (Actin-related protein 53D) [DRSC05923] — firefly Hh reporter signal, replicate 1 = 1.14e5; firefly Hh reporter signal, replicate 2 = 46576; Renilla reference signal, replicate 1 = 2940; Renilla reference signal, replicate 2 = 2547; Call = inactive
CG7448 (retired record) [DRSC11828] — firefly Hh reporter signal, replicate 1 = 1.27e5; firefly Hh reporter signal, replicate 2 = 1.02e5; Renilla reference signal, replicate 1 = 5741; Renilla reference signal, replicate 2 = 4694; Call = inactive
Muc68D (Mucin 68D) [DRSC10569] — firefly Hh reporter signal, replicate 1 = 94645; firefly Hh reporter signal, replicate 2 = 1.03e5; Renilla reference signal, replicate 1 = 4092; Renilla reference signal, replicate 2 = 4262; Call = inactive
CG18284 [DRSC02661] — firefly Hh reporter signal, replicate 1 = 1.29e5; firefly Hh reporter signal, replicate 2 = 1.28e5; Renilla reference signal, replicate 1 = 5162; Renilla reference signal, replicate 2 = 4768; Call = inactive
CG18284 [DRSC20756] — firefly Hh reporter signal, replicate 1 = 5.59e5; firefly Hh reporter signal, replicate 2 = 2.37e5; Renilla reference signal, replicate 1 = 33481; Renilla reference signal, replicate 2 = 5700; Call = inactive
